Source: PubChem BioAssay AID1347076 (National Center for Advancing Translational Sciences (NCATS), 2019)
In all, about 400,000 compounds went through this assay and about 13,000 (3.2%) were called active. This list was built around the results that the source calls inconclusive (neither active nor inactive); the mix of calls is not that of the screen. The call rests on the fitted dose curve; in most records, active means well fitted cell-killing curve with a large enough effect; inconclusive means small, poorly fitted or top-dose-only effect, or effect the other way; inactive means flat fitted curve, though single readings scatter. Potencies of inconclusive entries are doubtful fits and often do not repeat.

Assay: qHTS assay for MDR1-selective chemotherapeutics: Primary screen using the drug-selected MDR subline cells KB-V1; further: nearly all actives have a fitted effect of over 60% in size
Settings: KB-V1 MDR cells viability, CellTiter-Glo, 72 h; activity change, negative = cytotoxicity: at 46.1 µM (top of the series)
How it was run: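 Following 72 h at 37 degrees C with compound, KB-V1 cell viability was read by CellTiter-Glo luminescence, medium being phenol-red-free DMEM plus 10% FBS; concentration-response parameters came from normalized, curve-fitted qHTS data.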
On the % scale 0 is the no-effect control and ±100 the full control effect; potency means the concentration at half of the fitted maximal effect.

Compound | Potency | activity change, negative = cytotoxicity
O=C(CCn1nnc2ccccc21)Nc1nnc(COc2ccccc2F)s1 | inactive | –
CCOC(=O)NC(c1ccc(C(C)C)cc1)C(Cl)(Cl)Cl (configuration not stated) | inactive | –
CCCCn1c(CNC(=O)C23CC4CC(CC(C4)C2)C3)nnc1SC(C)CC (configuration not stated) | active: 20.6 µM | –
Cc1ccc2ccc(S(=O)(=O)NCc3ccccn3)cc2c1 | inconclusive: 10.3 µM [cytotoxic, single point] | –
CC(C)(C)NC(=O)NCC1CCCC1NC(=O)NC(C)(C)C (configuration not stated) | active: 25.9 µM | –
Cc1c(-c2ccc(Cl)cc2)oc(=O)c2c(N)n(-c3ccccc3)nc12 | active: 20.6 µM | –
CCC(C)NC(=O)Nc1ccc(Br)cc1Cl (configuration not stated) | inconclusive: 9.2 µM [cytotoxic, partial curve] | –
COc1cccc(NC(=O)C(C)SCc2ccccc2)c1 (configuration not stated) | inconclusive: 29.1 µM [cytotoxic, single point] | –
CC(C)Oc1cccc(C(=O)N/N=C/c2ccoc2)c1 | inconclusive: 16.4 µM [rising, single point] | –
COCCCNC(=O)CCCN1C(=O)CCn2nc(-c3cccn3C)cc21 | inactive | –
Cc1ccc(S(=O)(=O)NC(=O)COc2ccc([N+](=O)[O-])cc2)cc1 | inactive | –
Cc1nnsc1C(=O)Nc1cccc(Cl)c1 | inconclusive: 16.4 µM [cytotoxic, partial curve, poor fit] | –
O=C1c2ccccc2C(=O)N1CCCCSc1nc2ccccc2c(=O)n1CCCN1CCOCC1 | inconclusive: 23.1 µM [cytotoxic, single point] | –
COc1ccc(Nc2c(-c3cccc(OC)c3)nc3nc(C)cc(C)n23)cc1 | inconclusive: 4.61 µM [cytotoxic, full curve] | –
O=C(c1cccc(N2C(=O)C3C4C=CC(C4)C3C2=O)c1)N1CCN(c2ccccc2)CC1 (configuration not stated) | inconclusive: 8.2 µM [cytotoxic, partial curve, poor fit] | –
CC(=O)c1ccc(NC(=O)/C(=C\c2ccc(F)cc2)NC(=O)c2ccco2)cc1 | inactive | –
O=C(NCC1CCCO1)C(c1ccc(F)cc1)N(Cc1ccc2c(c1)OCO2)C(=O)c1ccc(CN2CCOCC2)o1 (configuration not stated) | inactive | –
O=C(Cn1nc(-c2nn(CC(=O)c3ccccc3)c3[n+]2CCCCC3)[n+]2c1CCCCC2)c1ccccc1 | inconclusive: 5.17 µM [rising, partial curve, poor fit] | –
Cc1ccc(C(=O)NC2CCN(CC(=O)Nc3ccccc3Cl)CC2)cc1 | inactive | –
CCOC(=O)c1c(NC(=O)C2CC(Cl)=CCC2C(=O)O)sc2c1CCCCC2 (configuration not stated) | inconclusive: 23.1 µM [rising, single point] | –
O=C(Nc1ccc(F)cc1)c1cn(-c2ccccc2)nc1-c1ccncc1 | inconclusive: 29.1 µM [cytotoxic, single point] | –
Cc1ccc(-c2nc(C)c(CCNC(=O)C(=O)Nc3cc(C)ccc3C)s2)cc1 | inactive | –
Cc1ccccc1-c1ccc(Nc2ccc(C(=O)N3CCOCC3)cc2)nn1 | active: 14.6 µM | –
Cc1ccc(Sc2nc([N+](=O)[O-])nn2C)cc1 | inconclusive: 20.6 µM [cytotoxic, single point] | –

Looked up by structure from the list above, two records:
Compound | Potency | activity change, negative = cytotoxicity
Cc1nnsc1C(=O)Nc1cccc(Cl)c1 | inconclusive: 16.4 µM [cytotoxic, partial curve, poor fit] | –
CC(=O)c1ccc(NC(=O)/C(=C\c2ccc(F)cc2)NC(=O)c2ccco2)cc1 | inactive | –

Remaining list, next part

Compound | Potency | activity change, negative = cytotoxicity
Cc1ccc(-c2n[nH]c3c2C(c2ccccc2Cl)N(c2ccc(C(=O)O)cc2)C3=O)cc1 (configuration not stated) | inconclusive: 10.3 µM [rising, partial curve, poor fit] | –
Cc1ccc(NS(=O)(=O)c2ccccc2F)cc1S(=O)(=O)N1CCCCC1 | inconclusive: 16.4 µM [cytotoxic, single point] | –
Cc1ccc(NC(=O)c2ccc(OC(=O)C(C)Oc3ccc(Cl)cc3C)cc2)cc1 (configuration not stated) | inconclusive: 7.31 µM [rising, partial curve] | –
Cc1nc2c(C(=O)N3CCOCC3)cnn2c(C)c1Cc1ccc(Cl)cc1 | inconclusive: 20.6 µM [cytotoxic, single point] | –
COc1ccc(-c2nc3ccc(C)cc3c(=O)o2)cc1OC | inconclusive: 20.6 µM [rising, partial curve] | –
O=C(Cn1cc(C(F)(F)F)cc(Cl)c1=O)Nc1cccc(S(=O)(=O)N2CCCCC2)c1 | inactive | –
COc1cc(CNCCSc2nnnn2C)ccc1OCc1ccccc1C | inactive | –
CCCNC(=S)N1CC2(C)CN(C(=O)C(=O)OC)CC(C)(C1)C2=O | inconclusive: 14.6 µM [rising, partial curve, poor fit] | –
CNc1nc(C)c(C(=O)OCC(=O)OC)s1 | inactive | –
CC(C)(Oc1ccc(F)cc1)C(=O)OCC(=O)c1ccc(S(C)(=O)=O)cc1 | inconclusive: 32.6 µM [rising, single point] | –
CCOc1ccc(/C=C/C(O)=C2/C(=O)N(C)C3(C)CC2c2ccccc2O3)cc1OC (configuration not stated) | inconclusive: 23.1 µM [cytotoxic, single point] | –
COc1cc(C(=O)NCc2ccc(C)cc2)ccc1OC(F)F | active: 23.1 µM | –
CCc1ccc(CNC(=O)c2cnc(N3CCCCC3)c3ccccc23)cc1 | inconclusive: 29.1 µM [cytotoxic, partial curve, poor fit] | –
S=C1NC2(CCCCC2)Cc2ccccc21 | inconclusive: 29.1 µM [rising, single point] | –
COc1ccc(NC(=O)/C(C#N)=C/c2ccc(-c3ccc(Cl)c(C(=O)O)c3)o2)cc1 | inactive | –
COCCn1c(=NC(=O)/C=C/c2cccs2)sc2cc(NC(C)=O)ccc21 | – | inconclusive: -18%
C=CCn1c(-c2ccccc2OC)n[nH]c1=S | inactive | –
O=C1C=CC2C3C(=O)N(c4ccccc4)C(=O)C3C1N2Cc1ccccc1 (configuration not stated) | active: 18.4 µM | –
Cc1c(NC(=O)/C(=C/c2cccs2)c2cccs2)c(=O)n(-c2ccccc2)n1C | inconclusive: 20.6 µM [cytotoxic, single point] | –
Cc1cccc(NC(=O)C23CCC(C)(C2Br)C3(C)C)c1 (configuration not stated) | inactive | –
COc1ccc(NC(=O)Nc2ccc(F)cc2F)c(C)c1 | inactive | –
Cc1cccc(N2C(=O)CN(Cc3sccc3C)C2=S)c1 | active: 23.1 µM | –
CC(=O)NC(NC(=S)Nc1ccc(N=Nc2ccccc2)cc1)C(Cl)(Cl)Cl (configuration not stated) | inconclusive: 29.1 µM [cytotoxic, single point] | –
